Here are results for two molecules from patent US10961303 (UNIVERSITEIT TWENTE, dated 2021).

Protein sequences, listed by entry. Tags and fused reporters are not part of them. Residues count along the entry.
UniProt P18075, residues 293-431: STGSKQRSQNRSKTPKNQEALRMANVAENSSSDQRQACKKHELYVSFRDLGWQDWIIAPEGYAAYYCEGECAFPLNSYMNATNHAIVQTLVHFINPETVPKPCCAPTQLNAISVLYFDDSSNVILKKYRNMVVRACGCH

These are yes or no findings as the source states them, for the method shown. Some binding calls cover weakened binding; strength is not graded here. For part of these data: Sequences can lack the tags named with a protein.

The target of experiment [1] is T1, BMP-6 (R&D systems cat. #507-BP/CF) (human, UniProt P22004 382-513, limits assumed).
T1 construct: Bought protein; also called recombinant human BMP-6
T1 sequence (looked up): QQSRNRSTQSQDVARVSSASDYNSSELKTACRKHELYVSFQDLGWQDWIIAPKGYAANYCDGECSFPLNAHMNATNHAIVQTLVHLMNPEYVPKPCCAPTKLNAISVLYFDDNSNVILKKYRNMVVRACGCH
As to the kind of experiment: ELISA on coated growth factor (FIG. 7A).

Experiment [2] has as its target T1, BMP-6 (R&D systems cat. #507-BP/CF). The experiment can be described thus: ELISA, 100 ng BMP6 coated, serial dilutions, read at 490 nm. The text has this: FIG. 7A-7B show the binding properties of the fusion proteins according to the invention which bind to a growth factor or growth factor inhibitor and to a biomaterial. Fusion proteins according to the invention are composed of the VHH according to the invention binding to a growth factor (indicated in the figure as "VHH-6-F2") and a VHH binding to a biomaterial (indicated in the figure as "MA"). […] The fusion proteins (indicated in the figure as "F") were constructed by genetic fusion of a VHH binding to BMP6 and a VHH binding to hydroxyapatite. To achieve binding to the growth factor BMP6 (FIG. 7A), 100 ng of BMP6 was coated into wells of a maxisorb plate. Serial dilutions of the VHH which binds to BMP6 (VHH-6-F2) and fusion proteins according to the invention (F) were added to the wells. Bound VHHs (VHH-6-F2) and fusion proteins (F) were detected with labelled polyclonal antibodies.
In general terms: ELISA stands for enzyme-linked immunosorbent assay.

The target in experiment [3] is BMP-7 (R&D system cat. #354-BP/CF) (UniProt P18075). As to the kind of experiment: binding test to cognate antigen, method not described.

B1: F fusion protein (VHH binding to BMP6, VHH-6-F2, fused to a VHH binding to hydroxyapatite, MA) (protein)
chain: EVQLVESGGGFVQAGGSLRLSCAASGSIFSINAMGWYRQAPGKQRELVAAITSGGSTNYADSVKGRFTISRDNAKNTLYLQMNSLKPEDTAVYYCSAVTILLTSGGWGSGNDYWGQGTQVTVSSGGGGSEVQLVESGGGLVQAGGSLRLSCAASGRTFSTYSMGWFRRAPGKEREFVAAISWSGGTTRYTNSVKGRFTISKDNFGNTVYLQMNNLKPEDTAVYYCATRYSYSTTPEEYDLWGQGNQVTVSS
With B1, the binding entry in experiment [1] and in experiment [2] was “binds” throughout.

B2: VHH-7-G7 (VHH, not shown: small tags and cut ends)
VHH: EVQLVESGGGLVQAGGSLRLSCAASGFTFDDYIIGWFRQAPGKEREGISCISSSDGSTYYADSVTGRFTISSDNAKNTVYLQMNSLKPEDTAVYYCAAHAKWPYGTYSFRRCRRASFDSWGQGTQVTVSS
Take B2: the binding result in experiment [3] is listed as “binds”.
